{"source": "patent US8329141B2", "about": "“Locoregional internal radionuclide ablation of abnormal tissues” (Board of Regents, The University of Texas System, priority 2004, dated 2012)", "test_system": "serum proteins", "assay": "Binding to serum proteins (Centrifree filter separation)", "type": "in vitro ADME, human (patients)", "procedure": "To test the hypothesis that local sequestration of ^111In—Cl is due to protein binding, both ^111In—Cl and YCl3 were tested for binding to CSF and serum proteins. Serum proteins were obtained from residual baseline serum and CSF proteins were obtained from patients participating in other research protocols who had consented to blood sampling. To determine the level of ^111In—Cl protein binding, 0.2, 0.5, or 1 μCi of ^111In—Cl was added to diluted CSF (0.125 or 0.5) or diluted serum protein (0.125 and 0.25) and incubated for 20 minutes. To determine the level of YCl3 protein binding, 0.2, 0.5, or 1 μCi of YCl3 was added to diluted CSF (0.063 or 0.5) or diluted serum protein (0.063 and 0.375), and incubated for 20 minutes. After incubation, free radiopharmaceuticals were separated from protein bound ^111In—Cl or YCl3 using Amicon Centrifree Micropartition filters in a single centrifugation step at 3000 g for 15 minutes according to manufacturer's instructions (Amicon, Beverly, Mass.). The percent binding of YCl3 or ^111In—Cl to the CSF or serum protein was then calculated. As shown in FIG. 6 and FIG. 7 respectively, both YCl3 and ^111In—Cl bind avidly to CSF and serum protein within the physiologic range (a dilution factor between 0.2 and 0.6) at all concentrations tested. At room temperature, both YCl3 and ^111In—Cl have greater than 95% binding to serum proteins. […]", "note": "Some of these results come from one statement about several compounds together. At least one structure is not confirmed: it was looked up by name or label, or the drawing left a doubt."}
{"smiles": "[Cl][90Y]([Cl])[Cl]", "note": "[YCl3, Yttrium-90 chloride]", "values": [{"measurement": "initial binding to serum proteins", "setting": "Example 5 serum binding measurements", "value": "greater than 99%"}, {"measurement": "binding to serum proteins", "setting": "at room temperature", "value": "greater than 95%"}]}
